Laboratory results reported in PubChem BioAssay AID488835 (Broad Institute, 2010).
In all, about 1,400 compounds went through this assay and about 140 (10%) were called active.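 How the source made its calls: active means Half-maximal inhibitory dose from the fit at or below ten times the top valid tested dose; inconclusive means Invalid fit, or flat curve showing 30 to 70% inhibition; inactive means the rest.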 Only a part is listed here, and it is no random draw. Measured potencies and affinities stand elsewhere.

Amino acid sequences for entries named in this document (tags omitted). Residues count along the entry.
UniProt Q9H3R0, 1-420 limits assumed: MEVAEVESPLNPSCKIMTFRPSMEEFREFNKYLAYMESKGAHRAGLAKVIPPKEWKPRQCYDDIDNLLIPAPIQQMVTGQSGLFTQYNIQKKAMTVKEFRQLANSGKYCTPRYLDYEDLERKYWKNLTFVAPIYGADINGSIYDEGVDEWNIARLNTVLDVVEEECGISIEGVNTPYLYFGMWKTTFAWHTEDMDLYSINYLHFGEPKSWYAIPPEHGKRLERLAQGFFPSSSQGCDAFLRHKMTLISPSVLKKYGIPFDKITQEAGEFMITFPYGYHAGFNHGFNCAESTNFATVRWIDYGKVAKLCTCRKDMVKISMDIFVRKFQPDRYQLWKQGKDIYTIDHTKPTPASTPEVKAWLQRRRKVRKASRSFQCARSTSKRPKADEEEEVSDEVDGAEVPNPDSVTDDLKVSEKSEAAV

What follows are molecules tested against Lysine-specific demethylase 4C (Homo sapiens) (UniProt Q9H3R0) (assay: inhibition of JMJD2C H3K9me3 demethylation – biochemical, DELFIA europium, cherry-picked samples, dose response (AID 488835;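 further: signal is the H3K9me2 demethylation product detected by a dimethyl-specific antibody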)). Settings: GST-JMJD2C(1-420); at 6 µM (top of the series) unless noted.

Activity change, negative = inhibition, inactive:
COc1ccc(NC(=O)N(C)C[C@H]2Oc3c(NC(=O)C4CC4)cccc3C(=O)N([C@H](C)CO)C[C@@H]2C)cc1 4.36%
O=C1NCCC/C1=N/Nc1ccc(F)cc1 -3.19%
COc1ccc(CCNC(=O)CSCc2n[nH]c(=O)[nH]2)cc1OC 5.01%
O=C(CSc1nnc(CNC(=O)c2c(F)cccc2Cl)o1)Nc1ccc2c(c1)OCCO2 -1.08%
CCn1c(CNC(=O)Cc2ccc(OC)cc2)nnc1SCC(=O)NC1CCCCC1 0.869%
CCN(CC)C(=O)C1c2ccccc2Oc2ccccc21 -11.4%
CC1CCN(C(=S)NC(=O)c2cccc([N+](=O)[O-])c2)CC1 1.7% [at 1.6 µM]
N/C(=N\S(=O)(=O)c1cc(C(F)(F)F)cc(C(F)(F)F)c1)c1ccccc1 0.83%
Cc1ccc(C(c2sc3nc(C)nn3c2O)N2CCN(c3ccccc3F)CC2)cc1 (stereo unspecified) 4.26%
CC(C)(C)c1ccc(C(=O)OCc2c(-c3ccccc3)ncc3ccccc23)cc1 2.8%
O=c1ccc2cc3c([nH]c4ccc(Br)cc43)oc-2c1O -20%
CCOc1ccc(C(=S)NC2CCCCC2)cc1 -1.16%
Cc1ccc(Cl)cc1N1CCN(C(=O)c2ccc(NS(=O)(=O)c3c(C)noc3C)cc2)CC1 -1.76%
NC(=O)C1CCN(C(=O)CCSc2ccccc2)CC1 3.4%
COc1ccc(CCNC(=O)c2ccccc2Cl)cc1OC 3.52%
COc1ccc2cc3cc(C(=O)N4CCN(C5CCCCC5)CC4)oc3nc2c1 0.294%
CC(=O)C[C@@H](O)CC(=O)[C@H]1OC(=O)CCCCCc2ccccc21 15.1%
COc1ccc(NC(=S)NNC(=O)c2ccc(S(=O)(=O)N3CCOCC3)cc2)cc1 2.81%
Cc1cccc(NC(=S)N2CCN(Cc3ccc4c(c3)OCO4)CC2)c1C 1.67%
COc1ccc(/C(O)=C/Sc2nnc(Cc3ccccc3)o2)cc1 -5.28%
Cc1ccc(S(=O)(=O)NCCC(=O)N2CCN(c3cccc(Cl)c3)CC2)cc1C 2.45%
CN(C)c1ccc(NC(=S)c2ccccn2)cc1 -5.84%
CCNc1ccc(S(=O)(=O)N(C)C)cc1NCC(=O)Nc1c(F)cccc1F 1.7%
CCOC(=O)C(C)Oc1ccsc1C(=O)OC (stereo unspecified) 3.95%
CC(=O)c1cccc(NC(=S)NC(=O)CC(C)C)c1 1.71%
COc1ccc(C(=O)O/N=C(\C)c2cnccn2)cc1 -0.844%

Retrieved by compound from the list above, two records:
Activity change, negative = inhibition, inactive:
CC(=O)c1cccc(NC(=S)NC(=O)CC(C)C)c1 1.71%
COc1ccc(CCNC(=O)c2ccccc2Cl)cc1OC 3.52%
